Laboratory results: publication PMC8270898
No constants are given. Whether binding was seen depends on the method and setting. Binding seen in cells or lysates may run through a third protein. Some entries that bind do so weakly or less than the wild type. Blank lines part the entries; values can stand above or below the substance they belong to.

Chains of the proteins cited; added tags and fusions are not shown.
UniProt Q8N6T7: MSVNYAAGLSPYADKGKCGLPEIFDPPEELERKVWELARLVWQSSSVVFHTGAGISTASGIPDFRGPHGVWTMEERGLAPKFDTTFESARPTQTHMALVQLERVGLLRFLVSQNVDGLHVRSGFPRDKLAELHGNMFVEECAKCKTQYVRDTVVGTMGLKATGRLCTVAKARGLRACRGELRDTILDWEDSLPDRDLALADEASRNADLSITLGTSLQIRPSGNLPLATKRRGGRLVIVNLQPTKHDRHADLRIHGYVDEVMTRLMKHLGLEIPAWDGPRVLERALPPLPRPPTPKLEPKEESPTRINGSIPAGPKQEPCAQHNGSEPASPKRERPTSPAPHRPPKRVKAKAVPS
UniProt Q9H1A4: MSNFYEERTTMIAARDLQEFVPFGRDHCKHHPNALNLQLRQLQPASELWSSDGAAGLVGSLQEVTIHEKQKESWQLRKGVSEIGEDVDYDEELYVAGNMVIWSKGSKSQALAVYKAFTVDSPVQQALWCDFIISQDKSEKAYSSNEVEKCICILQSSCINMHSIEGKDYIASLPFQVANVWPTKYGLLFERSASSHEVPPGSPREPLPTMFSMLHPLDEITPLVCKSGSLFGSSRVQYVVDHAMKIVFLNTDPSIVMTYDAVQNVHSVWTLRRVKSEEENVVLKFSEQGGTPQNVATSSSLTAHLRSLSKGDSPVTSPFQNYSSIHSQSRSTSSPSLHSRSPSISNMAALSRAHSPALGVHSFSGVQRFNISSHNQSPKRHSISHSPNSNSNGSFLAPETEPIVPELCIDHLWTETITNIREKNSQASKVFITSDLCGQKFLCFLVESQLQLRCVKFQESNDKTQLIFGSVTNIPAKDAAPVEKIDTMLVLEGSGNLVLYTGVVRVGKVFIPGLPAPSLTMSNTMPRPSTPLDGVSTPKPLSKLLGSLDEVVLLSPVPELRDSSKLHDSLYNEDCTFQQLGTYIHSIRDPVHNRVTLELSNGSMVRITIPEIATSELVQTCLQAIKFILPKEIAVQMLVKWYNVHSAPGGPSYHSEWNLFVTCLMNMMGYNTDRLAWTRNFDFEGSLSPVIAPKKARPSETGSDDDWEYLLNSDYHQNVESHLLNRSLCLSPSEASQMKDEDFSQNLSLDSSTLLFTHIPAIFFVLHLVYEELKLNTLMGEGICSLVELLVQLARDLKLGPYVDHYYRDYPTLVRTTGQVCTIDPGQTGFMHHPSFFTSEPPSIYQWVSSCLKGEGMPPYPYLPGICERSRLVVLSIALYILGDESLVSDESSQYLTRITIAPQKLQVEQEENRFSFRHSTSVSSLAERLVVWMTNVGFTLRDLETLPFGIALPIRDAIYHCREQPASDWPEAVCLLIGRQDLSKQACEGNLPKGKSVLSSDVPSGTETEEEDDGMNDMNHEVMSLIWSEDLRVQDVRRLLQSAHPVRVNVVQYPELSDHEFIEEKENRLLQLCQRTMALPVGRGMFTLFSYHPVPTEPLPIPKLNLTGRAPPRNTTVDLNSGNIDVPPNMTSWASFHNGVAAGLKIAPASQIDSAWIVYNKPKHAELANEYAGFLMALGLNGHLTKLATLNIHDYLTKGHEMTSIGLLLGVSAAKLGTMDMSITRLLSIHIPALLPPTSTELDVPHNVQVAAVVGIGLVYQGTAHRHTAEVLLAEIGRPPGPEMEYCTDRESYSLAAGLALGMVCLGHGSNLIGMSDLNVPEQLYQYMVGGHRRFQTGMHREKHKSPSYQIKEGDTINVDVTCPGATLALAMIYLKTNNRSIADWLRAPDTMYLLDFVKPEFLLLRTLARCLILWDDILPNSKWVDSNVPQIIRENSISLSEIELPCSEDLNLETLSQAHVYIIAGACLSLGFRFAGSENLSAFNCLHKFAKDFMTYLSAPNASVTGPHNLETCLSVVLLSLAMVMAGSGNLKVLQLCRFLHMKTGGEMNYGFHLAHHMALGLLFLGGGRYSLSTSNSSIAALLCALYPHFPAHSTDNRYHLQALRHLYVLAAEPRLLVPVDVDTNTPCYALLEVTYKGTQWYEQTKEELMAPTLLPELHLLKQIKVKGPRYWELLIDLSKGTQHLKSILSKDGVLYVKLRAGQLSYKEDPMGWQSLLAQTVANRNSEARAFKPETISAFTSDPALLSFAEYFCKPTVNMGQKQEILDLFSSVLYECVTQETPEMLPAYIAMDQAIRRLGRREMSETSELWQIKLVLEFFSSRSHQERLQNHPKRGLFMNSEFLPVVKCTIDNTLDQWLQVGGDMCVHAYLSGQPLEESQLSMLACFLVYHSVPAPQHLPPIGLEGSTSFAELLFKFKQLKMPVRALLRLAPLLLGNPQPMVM
UniProt Q12834: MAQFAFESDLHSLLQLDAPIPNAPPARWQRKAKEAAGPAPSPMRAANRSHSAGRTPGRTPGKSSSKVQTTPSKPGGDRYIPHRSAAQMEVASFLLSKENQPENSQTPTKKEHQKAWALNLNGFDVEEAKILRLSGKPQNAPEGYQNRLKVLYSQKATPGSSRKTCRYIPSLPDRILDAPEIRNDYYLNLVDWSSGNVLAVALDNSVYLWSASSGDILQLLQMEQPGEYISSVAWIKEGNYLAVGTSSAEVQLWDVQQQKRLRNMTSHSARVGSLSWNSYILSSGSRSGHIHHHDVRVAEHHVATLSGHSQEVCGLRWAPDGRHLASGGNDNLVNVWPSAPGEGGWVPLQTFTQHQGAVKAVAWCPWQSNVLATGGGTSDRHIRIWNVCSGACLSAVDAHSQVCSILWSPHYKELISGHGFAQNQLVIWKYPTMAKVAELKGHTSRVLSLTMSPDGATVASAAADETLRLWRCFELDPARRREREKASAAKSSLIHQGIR
UniProt Q9UM11: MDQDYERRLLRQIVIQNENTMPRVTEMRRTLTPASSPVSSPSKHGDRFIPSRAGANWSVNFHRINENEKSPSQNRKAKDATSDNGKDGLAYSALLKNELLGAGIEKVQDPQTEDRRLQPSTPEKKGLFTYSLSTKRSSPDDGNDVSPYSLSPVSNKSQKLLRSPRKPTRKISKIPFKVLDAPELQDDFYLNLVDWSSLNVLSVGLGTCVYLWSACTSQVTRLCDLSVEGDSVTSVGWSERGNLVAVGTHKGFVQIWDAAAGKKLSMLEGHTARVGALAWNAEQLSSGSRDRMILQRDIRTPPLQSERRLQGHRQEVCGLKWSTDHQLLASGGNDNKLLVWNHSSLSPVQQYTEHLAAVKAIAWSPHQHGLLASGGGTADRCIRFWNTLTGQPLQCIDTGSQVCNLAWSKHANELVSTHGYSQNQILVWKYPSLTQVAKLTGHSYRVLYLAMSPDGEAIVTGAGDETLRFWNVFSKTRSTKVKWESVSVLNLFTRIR

What was measured:
[1] = target: SIRT6 (human (endogenous in HeLa)) (UniProt Q8N6T7); experiment: co-IP; lysates of asynchronous HeLa cells; endogenous proteins precipitated with anti-SIRT6, anti-APC1, anti-CDC20 or anti-CDH1 antibody or normal IgG, protein A or G agarose, 4 °C; immunoblotting
[2] = target: APC1 (human (endogenous in HeLa)) (UniProt Q9H1A4); experiment: as above
[3] = target: CDC20 (human (endogenous in HeLa)) (UniProt Q12834); experiment: as above
[4] = target: CDH1 (human (endogenous in HeLa)) (UniProt Q9UM11); experiment: as above
CDC20-HA = CDC20-HA (UniProt Q12834); experiment: co-IP; lysates of HeLa cells stably expressing CDC20-HA or CDH1-HA along with SIRT6-FLAG; anti-HA beads overnight at 4 °C; immunoblotting; protein A/G as unspecific control
CDH1-HA = CDH1-HA (UniProt Q9UM11); experiment: as above

Substance: CDH1 (from UniProt Q9UM11 1-496)
- binding [1]: binds

Substance: SIRT6-FLAG (from UniProt Q8N6T7 1-355)
- binding (CDC20-HA): binds
- binding (CDH1-HA): binds

The remaining lines, values ahead:

- binding [1]: binds
Substance: CDC20 (from UniProt Q12834 1-499)

- binding [2]: binds
- binding [3]: binds
- binding [4]: binds
Substance: SIRT6 (from UniProt Q8N6T7 1-355)

- binding [1]: binds
Substance: APC1 (from UniProt Q9H1A4 1-1944)
